PubChem BioAssay AID1224831 | NIAID, 2016

Assay: 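Genes that support or restrain LPS-induced TNF-alpha reporter activity in macrophage-like cells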 (follow-up of hits)
System: human THP-1 B5 monocytic leukaemia cells carrying a TNF promoter luciferase reporter, made macrophage-like with PMA
Reagents: single siRNA against human genes, 50 nM
Duration: about 68 h of knock-down, then 4 h LPS
Conditions: LPS (Salmonella minnesota, TLR-grade) at 10 ng/ml for 4 h; PMA 5 ng/ml present during knock-down
Detection: 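TNF promoter reporter read as dual luciferase ratio after 4 h LPS, normalised per plate to its median, given as replicate mean robust z-score per siRNA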
Reading the numbers: TNF reporter z-score: higher = stronger LPS-induced TNF reporter signal; z-score, median over gene's siRNAs: higher = stronger TNF reporter signal across the gene's siRNAs
Hit rule: 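Active when the replicate mean z-score is about -1 or lower, or about 1.5 or higher; lowered and raised TNF reporter signal both count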
Calls: active = changed TNF reporter (either direction); inactive = little change
The whole screen tested about 3,500 reagents; below is an unselected part. 731 of all reagents (21%) count as active. 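Active means either lowered or raised reporter signal; the gene-median score did not drive the per-siRNA calls.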 The numbers tell different reagents against one gene apart.

UTP25 #1
- TNF reporter z-score, replicate mean: -2.04
- z-score, median over gene's siRNAs: -0.33
- outcome: active

UTP25 #2
- TNF reporter z-score, replicate mean: -1.48
- z-score, median over gene's siRNAs: -0.33
- outcome: active

UTP25 #3
- TNF reporter z-score, replicate mean: -0.42
- z-score, median over gene's siRNAs: -0.33
- outcome: inactive

UTP25 #4
- TNF reporter z-score, replicate mean: -0.24
- z-score, median over gene's siRNAs: -0.33
- outcome: inactive

UTP25 #5
- TNF reporter z-score, replicate mean: 1.81
- z-score, median over gene's siRNAs: -0.33
- outcome: active

UTP25 #6
- TNF reporter z-score, replicate mean: 0.33
- z-score, median over gene's siRNAs: -0.33
- outcome: inactive

UBXN10 #1
- TNF reporter z-score, replicate mean: -0.89
- z-score, median over gene's siRNAs: 0.135
- outcome: inactive

UBXN10 #2
- TNF reporter z-score, replicate mean: 0.22
- z-score, median over gene's siRNAs: 0.135
- outcome: inactive

UBXN10 #3
- TNF reporter z-score, replicate mean: 1.14
- z-score, median over gene's siRNAs: 0.135
- outcome: inactive

UBXN10 #4
- TNF reporter z-score, replicate mean: 0.05
- z-score, median over gene's siRNAs: 0.135
- outcome: inactive

UBXN10 #5
- TNF reporter z-score, replicate mean: -0.08
- z-score, median over gene's siRNAs: 0.135
- outcome: inactive

UBXN10 #6
- TNF reporter z-score, replicate mean: 1.82
- z-score, median over gene's siRNAs: 0.135
- outcome: active

MAFB #1
- TNF reporter z-score, replicate mean: -0.72
- z-score, median over gene's siRNAs: -0.925
- outcome: inactive

MAFB #2
- TNF reporter z-score, replicate mean: -2.41
- z-score, median over gene's siRNAs: -0.925
- outcome: active

MAFB #3
- TNF reporter z-score, replicate mean: -0.19
- z-score, median over gene's siRNAs: -0.925
- outcome: inactive

MAFB #4
- TNF reporter z-score, replicate mean: -0.7
- z-score, median over gene's siRNAs: -0.925
- outcome: inactive

MAFB #5
- TNF reporter z-score, replicate mean: -1.13
- z-score, median over gene's siRNAs: -0.925
- outcome: active

MAFB #6
- TNF reporter z-score, replicate mean: -1.87
- z-score, median over gene's siRNAs: -0.925
- outcome: active

IQCF3 #1
- TNF reporter z-score, replicate mean: -0.22
- z-score, median over gene's siRNAs: 0.23
- outcome: inactive

IQCF3 #2
- TNF reporter z-score, replicate mean: 0.68
- z-score, median over gene's siRNAs: 0.23
- outcome: inactive

IQCF3 #3
- TNF reporter z-score, replicate mean: -1.09
- z-score, median over gene's siRNAs: 0.23
- outcome: active

IQCF3 #4
- TNF reporter z-score, replicate mean: -0.38
- z-score, median over gene's siRNAs: 0.23
- outcome: inactive

IQCF3 #5
- TNF reporter z-score, replicate mean: 1.75
- z-score, median over gene's siRNAs: 0.23
- outcome: active

IQCF3 #6
- TNF reporter z-score, replicate mean: 1.24
- z-score, median over gene's siRNAs: 0.23
- outcome: inactive

DGAT1 #1
- TNF reporter z-score, replicate mean: 1.21
- z-score, median over gene's siRNAs: -0.38
- outcome: inactive

DGAT1 #2
- TNF reporter z-score, replicate mean: -0.44
- z-score, median over gene's siRNAs: -0.38
- outcome: inactive

DGAT1 #3
- TNF reporter z-score, replicate mean: -0.57
- z-score, median over gene's siRNAs: -0.38
- outcome: inactive

DGAT1 #4
- TNF reporter z-score, replicate mean: -0.32
- z-score, median over gene's siRNAs: -0.38
- outcome: inactive

DGAT1 #5
- TNF reporter z-score, replicate mean: 4.32
- z-score, median over gene's siRNAs: -0.38
- outcome: active

DGAT1 #6
- TNF reporter z-score, replicate mean: -0.67
- z-score, median over gene's siRNAs: -0.38
- outcome: inactive

PHKB #1
- TNF reporter z-score, replicate mean: -0.46
- z-score, median over gene's siRNAs: -0.215
- outcome: inactive

PHKB #2
- TNF reporter z-score, replicate mean: -0.23
- z-score, median over gene's siRNAs: -0.215
- outcome: inactive

PHKB #3
- TNF reporter z-score, replicate mean: -0.2
- z-score, median over gene's siRNAs: -0.215
- outcome: inactive

PHKB #4
- TNF reporter z-score, replicate mean: -0.05
- z-score, median over gene's siRNAs: -0.215
- outcome: inactive

PHKB #5
- TNF reporter z-score, replicate mean: -0.46
- z-score, median over gene's siRNAs: -0.215
- outcome: inactive

PHKB #6
- TNF reporter z-score, replicate mean: 0.17
- z-score, median over gene's siRNAs: -0.215
- outcome: inactive

STK35 #1
- TNF reporter z-score, replicate mean: 0.83
- z-score, median over gene's siRNAs: 0.765
- outcome: inactive

STK35 #2
- TNF reporter z-score, replicate mean: 0.15
- z-score, median over gene's siRNAs: 0.765
- outcome: inactive

STK35 #3
- TNF reporter z-score, replicate mean: 0.7
- z-score, median over gene's siRNAs: 0.765
- outcome: inactive

STK35 #4
- TNF reporter z-score, replicate mean: -0.27
- z-score, median over gene's siRNAs: 0.765
- outcome: inactive

STK35 #5
- TNF reporter z-score, replicate mean: 0.85
- z-score, median over gene's siRNAs: 0.765
- outcome: inactive

STK35 #6
- TNF reporter z-score, replicate mean: 1.03
- z-score, median over gene's siRNAs: 0.765
- outcome: inactive
